These are yes or no findings as the source states them, for the method shown. Binding seen in cells or lysates may run through a third protein. Some results given as binding are weak or reduced against the parent protein; the word gives no strength.
Columns and labels:
[1] = molecular target: PMCA4b, endogenous in red blood cells (human (endogenous in RBC)) (UniProt P23634); assay: proximity ligation; DuoLink PLA in suspension on fixed RBC (4% paraformaldehyde, 0.05% glutaraldehyde); anti-KCNN4 (rabbit) and anti-panPMCA (mouse) overnight at 4°C
[2] = molecular target: GFP-tagged hPMCA4b-ct120 (PMCA4b deleted of 120 C-terminal amino acids) (human) (UniProt P23634); assay: co-IP; Pierce co-IP kit; anti-PMCA (5F10) covalently bound to agarose beads; 1 mg of cleared lysate of transfected HEK293T cells, overnight at 4°C; Western blot of the eluate; also with 5 mM vanadate added to the lysate during IP
[3] = molecular target: GFP-tagged hPMCA4b WT (plasma membrane calcium-transporting ATPase 4b) (human) (UniProt P23634); assay: as above
[4] = molecular target: GFP-tagged hPMCA4b WT (plasma membrane calcium-transporting ATPase 4b) (human) (UniProt P23634); assay: proximity ligation; DuoLink PLA on HEK293T cells transfected with pEGFP-hPMCA4b and/or pcDNA3-hKCNN4-HA; fixed with 4% paraformaldehyde, permeabilised with Triton X-100; anti-KCNN4 (rabbit) and anti-PMCA4b (mouse, JA3) overnight at 4°C

Sequences of proteins named here, by UniProt entry; tags and fusion partners are left off. A change or cut given only in a name is not applied to a line headed by its entry. A line that says so, or that is headed by a name, gives the form on record, which may keep a tag or linker. Residues count along the entry.
GFP-tagged hPMCA4b-ct120 (PMCA4b deleted of 120 C-terminal amino acids) (P23634, residues 1-1085): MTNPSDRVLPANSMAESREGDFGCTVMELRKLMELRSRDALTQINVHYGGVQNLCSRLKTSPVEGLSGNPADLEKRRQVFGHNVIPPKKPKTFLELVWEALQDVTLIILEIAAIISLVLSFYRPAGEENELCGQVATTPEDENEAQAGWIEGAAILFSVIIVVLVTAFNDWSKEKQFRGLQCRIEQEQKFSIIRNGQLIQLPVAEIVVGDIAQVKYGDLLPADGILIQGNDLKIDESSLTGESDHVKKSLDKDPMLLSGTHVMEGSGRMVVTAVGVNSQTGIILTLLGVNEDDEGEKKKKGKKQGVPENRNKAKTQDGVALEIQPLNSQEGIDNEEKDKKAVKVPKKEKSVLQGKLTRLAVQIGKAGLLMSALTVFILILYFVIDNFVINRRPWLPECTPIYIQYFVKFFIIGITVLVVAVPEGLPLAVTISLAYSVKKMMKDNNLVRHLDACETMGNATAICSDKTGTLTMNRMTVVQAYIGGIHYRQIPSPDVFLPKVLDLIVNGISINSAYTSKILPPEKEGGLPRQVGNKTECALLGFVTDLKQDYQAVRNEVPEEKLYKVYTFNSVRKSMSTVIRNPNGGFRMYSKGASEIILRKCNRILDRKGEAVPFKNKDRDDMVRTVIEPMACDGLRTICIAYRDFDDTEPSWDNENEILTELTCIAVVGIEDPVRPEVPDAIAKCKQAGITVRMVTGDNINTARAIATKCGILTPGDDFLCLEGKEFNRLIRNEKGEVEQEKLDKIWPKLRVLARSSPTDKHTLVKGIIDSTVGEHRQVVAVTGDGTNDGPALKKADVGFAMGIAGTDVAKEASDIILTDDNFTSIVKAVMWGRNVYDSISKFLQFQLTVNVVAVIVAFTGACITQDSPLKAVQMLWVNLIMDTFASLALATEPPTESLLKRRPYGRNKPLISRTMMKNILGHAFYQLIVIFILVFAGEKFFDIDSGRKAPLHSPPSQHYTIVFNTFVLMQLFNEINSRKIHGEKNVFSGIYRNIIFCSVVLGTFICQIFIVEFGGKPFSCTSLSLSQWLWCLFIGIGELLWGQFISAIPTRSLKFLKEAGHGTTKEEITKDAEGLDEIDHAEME
GFP-tagged hPMCA4b WT (plasma membrane calcium-transporting ATPase 4b) (P23634, form named): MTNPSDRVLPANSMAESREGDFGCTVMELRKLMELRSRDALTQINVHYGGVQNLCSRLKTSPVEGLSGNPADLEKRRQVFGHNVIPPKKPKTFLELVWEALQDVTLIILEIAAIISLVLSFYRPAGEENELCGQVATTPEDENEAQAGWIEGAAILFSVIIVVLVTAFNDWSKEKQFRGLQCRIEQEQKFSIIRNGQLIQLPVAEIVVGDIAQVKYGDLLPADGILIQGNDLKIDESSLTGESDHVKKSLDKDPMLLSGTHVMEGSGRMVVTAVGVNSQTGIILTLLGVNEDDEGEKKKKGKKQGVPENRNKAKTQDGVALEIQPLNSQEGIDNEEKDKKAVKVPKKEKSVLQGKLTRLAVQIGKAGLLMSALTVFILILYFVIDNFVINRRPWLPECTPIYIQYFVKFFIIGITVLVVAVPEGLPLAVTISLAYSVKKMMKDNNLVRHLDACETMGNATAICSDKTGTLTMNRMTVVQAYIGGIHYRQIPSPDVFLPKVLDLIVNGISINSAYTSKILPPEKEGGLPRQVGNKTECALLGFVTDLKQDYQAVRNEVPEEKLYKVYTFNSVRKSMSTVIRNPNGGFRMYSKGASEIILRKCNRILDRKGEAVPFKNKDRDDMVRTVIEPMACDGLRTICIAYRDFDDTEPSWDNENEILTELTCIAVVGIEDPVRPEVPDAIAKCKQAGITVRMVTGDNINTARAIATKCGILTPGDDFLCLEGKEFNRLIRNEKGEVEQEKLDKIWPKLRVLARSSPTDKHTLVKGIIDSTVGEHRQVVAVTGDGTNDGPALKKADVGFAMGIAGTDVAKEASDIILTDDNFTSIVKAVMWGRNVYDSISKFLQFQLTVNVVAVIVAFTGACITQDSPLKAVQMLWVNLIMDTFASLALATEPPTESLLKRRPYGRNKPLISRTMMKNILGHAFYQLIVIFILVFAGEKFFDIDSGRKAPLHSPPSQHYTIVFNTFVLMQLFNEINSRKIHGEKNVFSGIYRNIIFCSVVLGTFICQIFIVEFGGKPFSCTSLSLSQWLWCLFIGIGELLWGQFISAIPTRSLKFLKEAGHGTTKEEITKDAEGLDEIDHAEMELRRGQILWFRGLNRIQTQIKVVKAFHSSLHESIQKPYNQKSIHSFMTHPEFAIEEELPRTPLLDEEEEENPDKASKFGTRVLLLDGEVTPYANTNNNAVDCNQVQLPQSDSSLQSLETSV
UniProt O15554: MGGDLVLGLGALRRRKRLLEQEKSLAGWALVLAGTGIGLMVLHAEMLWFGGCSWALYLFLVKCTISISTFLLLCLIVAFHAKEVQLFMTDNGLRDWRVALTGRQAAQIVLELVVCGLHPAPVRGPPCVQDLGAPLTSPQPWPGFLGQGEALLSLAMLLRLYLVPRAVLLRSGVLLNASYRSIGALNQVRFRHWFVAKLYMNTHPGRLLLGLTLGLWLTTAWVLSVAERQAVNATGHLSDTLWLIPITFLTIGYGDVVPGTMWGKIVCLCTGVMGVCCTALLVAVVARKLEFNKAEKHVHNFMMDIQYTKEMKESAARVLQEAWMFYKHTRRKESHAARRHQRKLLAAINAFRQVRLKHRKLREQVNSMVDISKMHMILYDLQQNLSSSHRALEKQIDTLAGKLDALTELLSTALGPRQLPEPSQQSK

Substance | binding [1] | binding [2] | binding [3] | binding [4]
KCNN4, endogenous in red blood cells (from UniProt O15554 1-427) | binds |  |  | 
hKCNN4-HA (from UniProt O15554 1-427) |  | binds | binds | binds

— paper PMC11787511
